# Some results were stated once for a whole list of compounds, not compound by compound.
# Molecular target: T1, human AR (Homo sapiens, UniProt P10275)
# T1 sequence (P10275 560-920 limits assumed): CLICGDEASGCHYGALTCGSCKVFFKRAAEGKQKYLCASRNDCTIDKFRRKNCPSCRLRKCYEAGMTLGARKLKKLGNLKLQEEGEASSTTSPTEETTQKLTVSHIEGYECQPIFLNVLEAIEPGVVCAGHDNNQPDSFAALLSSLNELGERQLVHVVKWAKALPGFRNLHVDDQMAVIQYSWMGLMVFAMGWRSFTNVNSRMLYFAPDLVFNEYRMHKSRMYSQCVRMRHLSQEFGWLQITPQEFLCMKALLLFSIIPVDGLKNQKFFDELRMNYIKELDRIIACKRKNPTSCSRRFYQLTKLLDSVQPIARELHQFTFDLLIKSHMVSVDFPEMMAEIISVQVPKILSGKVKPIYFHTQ
# Assay: AR functional assay (agonist mode), MMTV luciferase reporter in transfected CV-1 cells
# Format: cell-based
# Details: CV-1 cells transfected with human AR and MMTV luciferase, values said to be exemplary only
row,Compound,pIC50 in the agonist mode of the AR functional assay
1,"N#Cc1ccc2c(ccn2Cc2cc(-c3ccccc3)no2)c1C(F)(F)F [Example 259, 1-[(3-Phenyl-5-isoxazolyl)methyl]-4-(trifluoromethyl)-1H-indole-5-carbonitrile]",≥ 5.01
2,"Cc1cc2c(C(F)(F)F)c(C#N)ccc2n1Cc1cc(-c2ccc(F)cc2)on1 [Example 260, 1-{[5-(4-Fluorophenyl)-3-isoxazolyl]methyl}-2-methyl-4-(trifluoromethyl)-1H-indole-5-carbonitrile]",≥ 5.01
3,"Cc1cc2c(C(F)(F)F)c(C#N)ccc2n1Cc1cc(-c2ccccc2)no1 [Example 261, 2-Methyl-1-[(3-phenyl-5-isoxazolyl)methyl]-4-(trifluoromethyl)-1H-indole-5-carbonitrile]",≥ 5.01
4,"Cc1cc2c(C(F)(F)F)c(C#N)ccc2n1Cc1noc(-c2cccc(C(F)(F)F)n2)n1 [Example 262, 2-Methyl-4-(trifluoromethyl)-1-({5-[6-(trifluoromethyl)-2-pyridinyl]-1,2,4-oxadiazol-3-yl}methyl)-1H-indole-5-carbonitrile]",≥ 5.01
5,"Cc1cc2c(C(F)(F)F)c(C#N)ccc2n1Cc1noc(-c2cncc(C(F)(F)F)c2)n1 [Example 263, 2-Methyl-4-(trifluoromethyl)-1-({5-[5-(trifluoromethyl)-3-pyridinyl]-1,2,4-oxadiazol-3-yl}methyl)-1H-indole-5-carbonitrile]",≥ 5.01
6,"Cc1cc2c(C(F)(F)F)c(C#N)ccc2n1Cc1noc(-c2cc(C(F)(F)F)ccn2)n1 [Example 264, 2-Methyl-4-(trifluoromethyl)-1-({5-[4-(trifluoromethyl)-2-pyridinyl]-1,2,4-oxadiazol-3-yl}methyl)-1H-indole-5-carbonitrile]",≥ 5.01
7,"CCCc1cc2c(C(F)(F)F)c(C#N)ccc2n1Cc1nnc(C2CC2)s1 [Example 266, 1-[(5-Cyclopropyl-1,3,4-thiadiazol-2-yl)methyl]-2-propyl-4-(trifluoromethyl)-1H-indole-5-carbonitrile]",≥ 5.01
8,"CCCc1cc2c(C(F)(F)F)c(C#N)ccc2n1Cc1noc(-c2cccnc2SC)n1 [Example 269, 1-({5-[2-(Methylthio)-3-pyridinyl]-1,2,4-oxadiazol-3-yl}methyl)-2-propyl-4-(trifluoromethyl)-1H-indole-5-carbonitrile]",≥ 5.01
9,"CCCc1cc2c(C(F)(F)F)c(C#N)ccc2n1Cc1cscn1 [Example 270, 2-Propyl-1-(1,3-thiazol-4-ylmethyl)-4-(trifluoromethyl)-1H-indole-5-carbonitrile]",≥ 5.01
10,"CCCc1cc2c(C(F)(F)F)c(C#N)ccc2n1Cc1ccc(C(N)=O)o1 [Example 271, 5-{[5-Cyano-2-propyl-4-(trifluoromethyl)-1H-indol-1-yl]methyl}-2-furancarboxamide]",≥ 5.01
11,"CCCc1cc2c(C(F)(F)F)c(C#N)ccc2n1Cc1ccc(C#N)o1 [Example 272, 1-[(5-Cyano-2-furanyl)methyl]-2-propyl-4-(trifluoromethyl)-1H-indole-5-carbonitrile]",≥ 5.01
12,"CCCc1cc2c(C(F)(F)F)c(C#N)ccc2n1CC#N [Example 273, 1-(Cyanomethyl)-2-propyl-4-(trifluoromethyl)-1H-indole-5-carbonitrile]",≥ 5.01
13,"CCCc1cc2c(C(F)(F)F)c(C#N)ccc2n1Cc1noc(-c2cccs2)n1 [Example 274, 2-Propyl-1-{[5-(2-thienyl)-1,2,4-oxadiazol-3-yl]methyl}-4-(trifluoromethyl)-1H-indole-5-carbonitrile]",≥ 5.01
14,"CCCc1cc2c(C(F)(F)F)c(C#N)ccc2n1Cc1noc(-c2cc(F)ccc2F)n1 [Example 275, 1-{[5-(2,5-Difluorophenyl)-1,2,4-oxadiazol-3-yl]methyl}-2-propyl-4-(trifluoromethyl)-1H-indole-5-carbonitrile]",≥ 5.01
15,"CCCc1cc2c(C(F)(F)F)c(C#N)ccc2n1Cc1noc(-c2ccc(F)c(F)c2)n1 [Example 276, 1-{[5-(3,4-Difluorophenyl)-1,2,4-oxadiazol-3-yl]methyl}-2-propyl-4-(trifluoromethyl)-1H-indole-5-carbonitrile]",≥ 5.01
16,"CCCc1cc2c(C(F)(F)F)c(C#N)ccc2n1Cc1noc(-c2ccc(C(F)(F)F)cc2)n1 [Example 277, 2-Propyl-4-(trifluoromethyl)-1-({5-[4-(trifluoromethyl)phenyl]-1,2,4-oxadiazol-3-yl}methyl)-1H-indole-5-carbonitrile]",≥ 5.01
17,"CCCc1cc2c(C(F)(F)F)c(C#N)ccc2n1Cc1noc(-c2cc(C(F)(F)F)cc(Cl)c2F)n1 [Example 279, 1-({5-[3-Chloro-2-fluoro-5-(trifluoromethyl)phenyl]-1,2,4-oxadiazol-3-yl}methyl)-2-propyl-4-(trifluoromethyl)-1H-indole-5-carbonitrile]",≥ 5.01
18,"CCCc1cc2c(C(F)(F)F)c(C#N)ccc2n1Cc1noc(-c2cc(F)c(F)c(F)c2)n1 [Example 280, 2-Propyl-4-(trifluoromethyl)-1-{[5-(3,4,5-trifluorophenyl)-1,2,4-oxadiazol-3-yl]methyl}-1H-indole-5-carbonitrile]",≥ 5.01
19,"CCCc1cc2c(C(F)(F)F)c(C#N)ccc2n1Cc1noc(-c2cc(C(F)(F)F)ccc2F)n1 [Example 281, 1-({5-[2-Fluoro-5-(trifluoromethyl)phenyl]-1,2,4-oxadiazol-3-yl}methyl)-2-propyl-4-(trifluoromethyl)-1H-indole-5-carbonitrile]",≥ 5.01
20,"CCCc1cc2c(C(F)(F)F)c(C#N)ccc2n1Cc1noc(-c2cccc(C(F)(F)F)c2)n1 [Example 282, 2-Propyl-4-(trifluoromethyl)-1-({5-[3-(trifluoromethyl)phenyl]-1,2,4-oxadiazol-3-yl}methyl)-1H-indole-5-carbonitrile]",≥ 5.01
21,"CCCc1cc2c(C(F)(F)F)c(C#N)ccc2n1Cc1noc(-c2cc(C(F)(F)F)ccc2Cl)n1 [Example 283, 1-({5-[2-Chloro-5-(trifluoromethyl)phenyl]-1,2,4-oxadiazol-3-yl}methyl)-2-propyl-4-(trifluoromethyl)-1H-indole-5-carbonitrile]",≥ 5.01
22,"CCCc1cc2c(C(F)(F)F)c(C#N)ccc2n1Cc1noc(-c2cc(Cl)sc2Cl)n1 [Example 284, 1-{[5-(2,5-Dichloro-3-thienyl)-1,2,4-oxadiazol-3-yl]methyl}-2-propyl-4-(trifluoromethyl)-1H-indole-5-carbonitrile]",≥ 5.01
23,"CCCc1cc2c(C(F)(F)F)c(C#N)ccc2n1Cc1noc(-c2cc(Cl)ccc2Cl)n1 [Example 285, 1-{[5-(2,5-Dichlorophenyl)-1,2,4-oxadiazol-3-yl]methyl}-2-propyl-4-(trifluoromethyl)-1H-indole-5-carbonitrile]",≥ 5.01
24,"CCCc1cc2c(C(F)(F)F)c(C#N)ccc2n1Cc1noc(-c2cc(Cl)ccc2Br)n1 [Example 286, 1-{[5-(2-Bromo-5-chlorophenyl)-1,2,4-oxadiazol-3-yl]methyl}-2-propyl-4-(trifluoromethyl)-1H-indole-5-carbonitrile]",≥ 5.01
25,"CCCc1cc2c(C(F)(F)F)c(C#N)ccc2n1Cc1noc(-c2cc(Br)ccc2Cl)n1 [Example 287, 1-{[5-(5-Bromo-2-chlorophenyl)-1,2,4-oxadiazol-3-yl]methyl}-2-propyl-4-(trifluoromethyl)-1H-indole-5-carbonitrile]",≥ 5.01
26,"CCCc1cc2c(C(F)(F)F)c(C#N)ccc2n1Cc1noc(-c2cccnc2Cl)n1 [Example 288, 1-{[5-(2-Chloro-3-pyridinyl)-1,2,4-oxadiazol-3-yl]methyl}-2-propyl-4-(trifluoromethyl)-1H-indole-5-carbonitrile]",≥ 5.01
27,"CCCc1cc2c(C(F)(F)F)c(C#N)ccc2n1Cc1noc(-c2cc(Cl)cnc2Cl)n1 [Example 289, 1-{[5-(2,5-Dichloro-3-pyridinyl)-1,2,4-oxadiazol-3-yl]methyl}-2-propyl-4-(trifluoromethyl)-1H-indole-5-carbonitrile]",≥ 5.01
28,"CCCc1cc2c(C(F)(F)F)c(C#N)ccc2n1Cc1noc(-c2cnccc2Cl)n1 [Example 290, 1-{[5-(4-Chloro-3-pyridinyl)-1,2,4-oxadiazol-3-yl]methyl}-2-propyl-4-(trifluoromethyl)-1H-indole-5-carbonitrile]",≥ 5.01
29,"CCCc1cc2c(C(F)(F)F)c(C#N)ccc2n1Cc1noc(-c2cc(I)ccc2Cl)n1 [Example 291, 1-{[5-(2-Chloro-5-iodophenyl)-1,2,4-oxadiazol-3-yl]methyl}-2-propyl-4-(trifluoromethyl)-1H-indole-5-carbonitrile]",≥ 5.01
30,"CCCc1cc2c(C(F)(F)F)c(C#N)ccc2n1Cc1noc(-c2cc(C(=O)OC)ccc2Cl)n1 [Example 293, Methyl 4-chloro-3-(3-{[5-cyano-2-propyl-4-(trifluoromethyl)-1H-indol-1-yl]methyl}-1,2,4-oxadiazol-5-yl)benzoate]",≥ 5.01

# — patent US8026262B2, “Chemical compounds” (GlaxoSmithKline LLC, priority 2006, dated 2011)
